Literature values, collected in patent US20050277623A1, “Treatment for averting or delaying premature delivery” (priority 2001, published 2005).
At least one structure is not confirmed: it was looked up by name or label, or the drawing left a doubt.

Tested on: MMP-9
Details: under in vivo conditions when administered per routine dosage

Structure (SMILES)	inhibition of MMP-9 bioactivity
C[C@H]1c2cccc(O)c2C(=O)C2=C(O)[C@]3(O)C(=O)C(C(N)=O)=C(O)[C@@H](N(C)C)[C@@H]3[C@@H](O)[C@@H]21 [doxycycline]	inhibitors
CN(C)c1ccc(O)c2c1C[C@H]1C[C@H]3[C@H](N(C)C)C(O)=C(C(N)=O)C(=O)[C@@]3(O)C(O)=C1C2=O [minocycline]	inhibitors
